The record followed here is publication doi:10.1101/2023.09.13.557516.

These are yes or no findings as the source states them, for the method shown. Binding seen in cells or lysates may run through a third protein. A result given as binding can be weak or reduced; the word gives no strength. Sequences can lack the tags named with a protein.

The experiment addresses HDL-YFP (Arabidopsis). As to the kind of experiment: co-IP.

B1: KYP-FLAG (KRYPTONITE/SUPPRESSOR OF …ON 3-9 HOMOLOG 4) (enzyme, UniProt Q8GZB6 1-624)
chain: MAGKRKRANAPDQTERRSSVRVQKVRQKALDEKARLVQERVKLLSDRKSEICVDDTELHEKEEENVDGSPKRRSPPKLTAMQKGKQKLSVSLNGKDVNLEPHLKVTKCLRLFNKQYLLCVQAKLSRPDLKGVTEMIKAKAILYPRKIIGDLPGIDVGHRFFSRAEMCAVGFHNHWLNGIDYMSMEYEKEYSNYKLPLAVSIVMSGQYEDDLDNADTVTYTGQGGHNLTGNKRQIKDQLLERGNLALKHCCEYNVPVRVTRGHNCKSSYTKRVYTYDGLYKVEKFWAQKGVSGFTVYKYRLKRLEGQPELTTDQVNFVAGRIPTSTSEIEGLVCEDISGGLEFKGIPATNRVDDSPVSPTSGFTYIKSLIIEPNVIIPKSSTGCNCRGSCTDSKKCACAKLNGGNFPYVDLNDGRLIESRDVVFECGPHCGCGPKCVNRTSQKRLRFNLEVFRSAKKGWAVRSWEYIPAGSPVCEYIGVVRRTADVDTISDNEYIFEIDCQQTMQGLGGRQRRLRDVAVPMNNGVSQSSEDENAPEFCIDAGSTGNFARFINHSCEPNLFVQCVLSSHQDIRLARVVLFAADNISPMQELTYDYGYALDSVHGPDGKVKQLACYCGALNCRKRLY
For B1, the binding entry is “binds”.
